Results deposited as PubChem BioAssay AID1224830 (NIAID, 2016)

Assay: 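Genes whose knock-down alters the TNF-alpha reporter response to LPS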 (primary screen)
System: human THP-1 monocytic leukaemia cells, TNF dual-luciferase reporter clone, PMA-differentiated to macrophage-like cells
Reagents: siRNA pool against human genes, 50 nM
Timing: LPS for 4 h, given about 3 days after siRNA transfection
Treatment: bacterial LPS (TLR4 ligand), 10 ng/ml
Detection: 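Ratio of firefly to renilla light, scaled to the plate median and expressed as a robust z-score per replicate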
Reading the numbers: TNF reporter robust z-score: higher = stronger TNF reporter response to LPS
Hit rule: 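a well is active when its z-score exceeds 2.8 or falls below -1.5; control wells carry no call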
Here is a random part of about 18,000 deposited reagents. In the full data, about 2,900 (16%) are marked active. 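Calls are made per well; low scores hint the gene aids the LPS response, high scores that it dampens it.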 Entries without a mark were called inactive. Repeated entries: four replicate wells of each siRNA pool.

{"gene": "SERF2 (small EDRK-rich factor 2)", "TNF reporter robust z-score": -0.45}
{"gene": "SERF2 (small EDRK-rich factor 2)", "TNF reporter robust z-score": -0.74}
{"gene": "SERF2 (small EDRK-rich factor 2)", "TNF reporter robust z-score": -0.86}
{"gene": "SERF2 (small EDRK-rich factor 2)", "TNF reporter robust z-score": -0.57}
{"gene": "TSPY3 (testis specific protein Y-linked 3)", "TNF reporter robust z-score": "-1.69 (active)"}
{"gene": "TSPY3 (testis specific protein Y-linked 3)", "TNF reporter robust z-score": 0.11}
{"gene": "TSPY3 (testis specific protein Y-linked 3)", "TNF reporter robust z-score": "-1.66 (active)"}
{"gene": "TSPY3 (testis specific protein Y-linked 3)", "TNF reporter robust z-score": "-1.58 (active)"}
{"gene": "MYL5 (myosin light chain 5)", "TNF reporter robust z-score": -0.29}
{"gene": "MYL5 (myosin light chain 5)", "TNF reporter robust z-score": 0.15}
{"gene": "MYL5 (myosin light chain 5)", "TNF reporter robust z-score": -0.73}
{"gene": "MYL5 (myosin light chain 5)", "TNF reporter robust z-score": 0.44}
{"gene": "TMX2 (thioredoxin related transmembrane protein 2)", "TNF reporter robust z-score": "3.08 (active)"}
{"gene": "TMX2 (thioredoxin related transmembrane protein 2)", "TNF reporter robust z-score": 2.41}
{"gene": "TMX2 (thioredoxin related transmembrane protein 2)", "TNF reporter robust z-score": 1.04}
{"gene": "TMX2 (thioredoxin related transmembrane protein 2)", "TNF reporter robust z-score": 1.83}
{"gene": "LAMB2 (laminin subunit beta 2)", "TNF reporter robust z-score": 0.22}
{"gene": "LAMB2 (laminin subunit beta 2)", "TNF reporter robust z-score": 0.92}
{"gene": "LAMB2 (laminin subunit beta 2)", "TNF reporter robust z-score": -0.01}
{"gene": "LAMB2 (laminin subunit beta 2)", "TNF reporter robust z-score": 0.66}
{"gene": "OSTM1 (osteoclastogenesis associated transmembrane protein 1)", "TNF reporter robust z-score": -0.06}
{"gene": "OSTM1 (osteoclastogenesis associated transmembrane protein 1)", "TNF reporter robust z-score": 0.05}
{"gene": "OSTM1 (osteoclastogenesis associated transmembrane protein 1)", "TNF reporter robust z-score": 0.33}
{"gene": "OSTM1 (osteoclastogenesis associated transmembrane protein 1)", "TNF reporter robust z-score": 0.77}
{"gene": "DHX37 (DEAH-box helicase 37)", "TNF reporter robust z-score": 0.16}
{"gene": "DHX37 (DEAH-box helicase 37)", "TNF reporter robust z-score": 1.07}
{"gene": "DHX37 (DEAH-box helicase 37)", "TNF reporter robust z-score": 1.3}
{"gene": "DHX37 (DEAH-box helicase 37)", "TNF reporter robust z-score": 1.59}
{"gene": "PTGFR (prostaglandin F receptor)", "TNF reporter robust z-score": 0.34}
{"gene": "PTGFR (prostaglandin F receptor)", "TNF reporter robust z-score": 0.25}
{"gene": "PTGFR (prostaglandin F receptor)", "TNF reporter robust z-score": -0.27}
{"gene": "PTGFR (prostaglandin F receptor)", "TNF reporter robust z-score": 1.37}
{"gene": "LPAL2 (lipoprotein(a) like 2 (pseudogene))", "TNF reporter robust z-score": 0.88}
{"gene": "LPAL2 (lipoprotein(a) like 2 (pseudogene))", "TNF reporter robust z-score": 1.66}
{"gene": "LPAL2 (lipoprotein(a) like 2 (pseudogene))", "TNF reporter robust z-score": 2.7}
{"gene": "LPAL2 (lipoprotein(a) like 2 (pseudogene))", "TNF reporter robust z-score": 0.16}
{"gene": "ZNF708 (zinc finger protein 708)", "TNF reporter robust z-score": -0.21}
{"gene": "ZNF708 (zinc finger protein 708)", "TNF reporter robust z-score": 1.17}
{"gene": "ZNF708 (zinc finger protein 708)", "TNF reporter robust z-score": 0.98}
{"gene": "ZNF708 (zinc finger protein 708)", "TNF reporter robust z-score": 2.6}
{"gene": "BRWD1 (bromodomain and WD repeat domain containing 1)", "TNF reporter robust z-score": -0.1}
{"gene": "BRWD1 (bromodomain and WD repeat domain containing 1)", "TNF reporter robust z-score": 0.38}
{"gene": "BRWD1 (bromodomain and WD repeat domain containing 1)", "TNF reporter robust z-score": -0.64}
{"gene": "BRWD1 (bromodomain and WD repeat domain containing 1)", "TNF reporter robust z-score": 0.37}
{"gene": "ASCL3 (achaete-scute family bHLH transcription factor 3)", "TNF reporter robust z-score": 0.14}
{"gene": "ASCL3 (achaete-scute family bHLH transcription factor 3)", "TNF reporter robust z-score": 0.4}
{"gene": "ASCL3 (achaete-scute family bHLH transcription factor 3)", "TNF reporter robust z-score": 0.43}
{"gene": "ASCL3 (achaete-scute family bHLH transcription factor 3)", "TNF reporter robust z-score": -0.57}
{"gene": "VAPB (VAMP associated protein B and C)", "TNF reporter robust z-score": -1.05}
{"gene": "VAPB (VAMP associated protein B and C)", "TNF reporter robust z-score": -0.52}
{"gene": "VAPB (VAMP associated protein B and C)", "TNF reporter robust z-score": -0.9}
{"gene": "VAPB (VAMP associated protein B and C)", "TNF reporter robust z-score": -0.69}
{"gene": "TMEM252 (transmembrane protein 252)", "TNF reporter robust z-score": -0.16}
{"gene": "TMEM252 (transmembrane protein 252)", "TNF reporter robust z-score": 1.92}
{"gene": "TMEM252 (transmembrane protein 252)", "TNF reporter robust z-score": 0.27}
{"gene": "TMEM252 (transmembrane protein 252)", "TNF reporter robust z-score": 1.16}
{"gene": "PAK6 (p21 (RAC1) activated kinase 6)", "TNF reporter robust z-score": -1.42}
{"gene": "PAK6 (p21 (RAC1) activated kinase 6)", "TNF reporter robust z-score": "-1.51 (active)"}
{"gene": "PAK6 (p21 (RAC1) activated kinase 6)", "TNF reporter robust z-score": 0.55}
{"gene": "PAK6 (p21 (RAC1) activated kinase 6)", "TNF reporter robust z-score": 0.84}

Hits (from the list above):
{"gene": "TSPY3 (testis specific protein Y-linked 3)", "TNF reporter robust z-score": "-1.69 (active)"}
{"gene": "TSPY3 (testis specific protein Y-linked 3)", "TNF reporter robust z-score": "-1.66 (active)"}
{"gene": "TSPY3 (testis specific protein Y-linked 3)", "TNF reporter robust z-score": "-1.58 (active)"}
{"gene": "TMX2 (thioredoxin related transmembrane protein 2)", "TNF reporter robust z-score": "3.08 (active)"}
{"gene": "PAK6 (p21 (RAC1) activated kinase 6)", "TNF reporter robust z-score": "-1.51 (active)"}
